Structures are written as SMILES.

The chains behind the UniProt entries cited, without tags or fusion partners. Residues count along the entry.
UniProt P15917, 34-809 limits assumed: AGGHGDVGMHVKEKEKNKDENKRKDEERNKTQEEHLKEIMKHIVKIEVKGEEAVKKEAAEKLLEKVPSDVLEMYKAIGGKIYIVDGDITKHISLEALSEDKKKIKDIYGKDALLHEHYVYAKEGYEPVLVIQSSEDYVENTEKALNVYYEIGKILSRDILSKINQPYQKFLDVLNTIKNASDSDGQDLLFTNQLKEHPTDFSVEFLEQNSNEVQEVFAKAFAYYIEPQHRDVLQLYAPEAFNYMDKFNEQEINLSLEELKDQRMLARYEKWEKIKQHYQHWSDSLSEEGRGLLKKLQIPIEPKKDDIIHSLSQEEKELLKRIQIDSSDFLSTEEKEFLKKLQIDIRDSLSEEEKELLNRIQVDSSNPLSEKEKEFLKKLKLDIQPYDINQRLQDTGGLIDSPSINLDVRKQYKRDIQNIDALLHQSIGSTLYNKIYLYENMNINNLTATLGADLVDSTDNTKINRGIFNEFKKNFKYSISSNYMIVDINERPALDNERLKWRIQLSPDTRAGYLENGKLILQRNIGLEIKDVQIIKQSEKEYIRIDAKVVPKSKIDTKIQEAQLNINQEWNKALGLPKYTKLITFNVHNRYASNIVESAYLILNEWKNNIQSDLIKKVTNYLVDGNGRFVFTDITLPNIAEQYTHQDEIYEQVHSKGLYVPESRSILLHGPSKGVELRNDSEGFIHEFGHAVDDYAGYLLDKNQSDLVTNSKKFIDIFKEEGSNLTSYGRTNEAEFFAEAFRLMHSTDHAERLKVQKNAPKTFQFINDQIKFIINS

The values that follow come from patent US20150087605A1 (priority 2013, published 2015).

The test concerns the target Anthrax Lethal Factor (LF) (Bacillus anthracis, UniProt P15917). The test is described as follows: biochemical. It is filed as binding.

With `COc1ccc2cc([C@H](C)C(=O)O)ccc2c1` [Naproxen, (S)-(+)-6-Methoxy-α-methyl-2-naphthaleneacetic acid], the Kd (usually the free concentration of one partner at which half of the binding sites on the other are occupied at equilibrium, for simple one-to-one binding) is 10.8 µM.
